Drawing on publication PMC9456107, “DNA Motifs and an Accessory CRISPR Factor Determine Cas1 Binding and Integration Activity in Sulfolobus islandicus”, this text covers binding for one substance.

Results are given in words; binding and its absence hold for the method and conditions named. In cells and extracts the contact can be indirect. These calls come from enrichment with a bait or labelling near it, and not all partners need be listed. Sequences can lack the tags named with a protein.

The target in this assay is T1, plasmid-borne His-tagged Cas1 (S. islandicus REY15A) (UniProt F0NGP4).
T1 sequence: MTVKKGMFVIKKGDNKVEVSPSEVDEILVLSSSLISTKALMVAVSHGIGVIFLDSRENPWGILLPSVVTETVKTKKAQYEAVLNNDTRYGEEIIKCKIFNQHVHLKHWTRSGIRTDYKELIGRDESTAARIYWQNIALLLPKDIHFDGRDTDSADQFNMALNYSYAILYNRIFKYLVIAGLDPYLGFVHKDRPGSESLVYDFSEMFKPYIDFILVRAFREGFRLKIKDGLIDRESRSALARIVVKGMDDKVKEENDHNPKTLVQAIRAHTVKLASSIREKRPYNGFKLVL
The assay is described as follows: affinity purification with mass spectrometry; in vivo pull-down: His-tagged Cas1 expressed from pSeSD in S. islandicus; soluble lysate on Ni-NTA agarose beads; 20 mM HEPES-NaOH pH 7.6, 500 mM NaCl; wash with 100 mM imidazole, elution with 500 mM imidazole; eluate to mass spectrometry.

Consider Csa3a, for which the binding entry is “binds”.
